In US7041486B1, “Enzyme having decolorizing activity and method for decolorizing dyes by using the same” (Meiji Seika Kaisha Ltd., priority 1999, dated 2006):

The compounds below were run on DyP (assay: Assay of dye-degrading (decolorizing) activity of purified DyP). Conditions: optimum pH for the degradation of each dye by DyP, 25 mM citrate buffer.
Format: biochemical, Geotrichum candidum Dec 1
Procedure: The dye-degrading spectrum of the purified DyP was examined for nine types of dyes and three model compounds. The activity of the purified DyP to degrade these dyes or model compounds was assayed by measuring the degradation rates.
As the dyes, use was made of Reactive blue 5, 19 and 114; AQ-1 and AQ-2; Reactive black 5, Reactive red 33, Reactive yellow 2, and Reactive blue 182.
The dye-degrading activity was measured as follows.
0.2 to 0.4 mM aqueous hydrogen peroxide was added to a mixture solution of 3 mL of 25 mM citrate buffer (adjusted to the optimum pH for the degradation of each of the dyes) containing each dye at a fixed […] (30 to 120 ppm) and 1 mL of 1.86 nM DyP solution, to initiate the enzyme reaction. Reaction was performed at 30° C. for a fixed period of time, to assay the reaction rate.
1 U of the dye-degrading activity was defined as the activity to decolorize 1 μmole Reactive blue 5 or AQ-2 for one minute.

Compound | Optimum pH
Nc1cc(Nc2cc(S(=O)(=O)[O-])c(N)c3c2C(=O)c2ccccc2C3=O)ccc1S(=O)(=O)[O-].[Na+].[Na+] [AQ-1, 1-amino-4-(3-amino-4-sodium-sulfonoanilino)-2-sodium anthraquinone sulfonate] | 3.2
CNc1cc(S(=O)(=O)[O-])c(N)c2c1C(=O)c1ccccc1C2=O.[Na+] [AQ-2, 1-amino-4-methylamino-2-sodium-anthraquinone sulfonate] | 3.0
Nc1c(N=Nc2ccc(S(=O)(=O)CCOS(=O)(=O)[O-])cc2)c(S(=O)(=O)[O-])cc2cc(S(=O)(=O)[O-])c(N=Nc3ccc(S(=O)(=O)CCOS(=O)(=O)[O-])cc3)c(O)c12.[Na+].[Na+].[Na+].[Na+] [Reactive black 5] | 3.2
Nc1c(S(=O)(=O)[O-])cc(Nc2ccc(S(=O)(=O)[O-])c(Nc3nc(Cl)nc(Nc4cccc(S(=O)(=O)[O-])c4)n3)c2)c2c1C(=O)c1ccccc1C2=O.[Na+].[Na+].[Na+] [Reactive blue 5] | 3.2
Nc1c(S(=O)(=O)[O-])cc(Nc2cccc(S(=O)(=O)CCOS(=O)(=O)[O-])c2)c2c1C(=O)c1ccccc1C2=O.[Na+].[Na+] [Reactive blue 19] | 3.2
COc1ccc(N=Nc2c(S(=O)(=O)[O-])cc3cc(N(C)c4nc(Cl)nc(Nc5ccc(S(=O)(=O)[O-])cc5)n4)ccc3c2O)c(S(=O)(=O)[O-])c1.[Na+].[Na+].[Na+] [Reactive red 33] | 3.2
CC1=NN(c2cc(Cl)c(S(=O)(=O)O)cc2Cl)C(=O)C1N=Nc1cc(Nc2nc(Cl)nc(Nc3ccc(S(=O)(=O)O)cc3)n2)ccc1S(=O)(=O)O.[Na] (stereo not drawn) [Reactive yellow 2] | 3.2
Reactive blue 114 | 4.0
Reactive blue 182 | 4.0
